Source: patent US11518785B2 (CAREGEN CO., LTD., priority 2017, dated 2022)

Test: general procedure: Fmoc solid-phase peptide synthesis; Leu-CTC resin; HBTu/HoBt/DIEA
Conditions: whole synthesis, scale 200 mmol

Work on FCLGPCPYIWSL yielded a crude mass of 129.8 g and a crude yield of 92.8%.

Plain letter strings leave the end groups untold.
